# Assay results as given in paper PMC12370185.
# The list shows a part of the results. At the low end of the ranking the order means little.
# Test system: OCT4 + histone octamer
# Assay: Pioneer-seq (competitive nucleosome EMSA with sequencing)
# Conditions: 10 mM Tris-Cl pH 7.5, 50 mM NaCl, 1 mM DTT, 0.25 mg/ml BSA, 2 mM MgCl2, 0.025% Nonidet P-40, 5% glycerol; 28 nM nucleosome library; 10 min on ice then 30 min …; high values mean tight binding; double strand, one strand shown
row,Sequence,binding signal (log2 relative supershift)
1,GATGGACCCTATACGCGGCGCGGAAGCCACCCACCAAGCTCACACAAGGGATGTGGCTGAACATGTGCTGGGCAAACACTAGAGGGTGAGAGTGGGGCTGACTTAGTAAAAGGGACATGTGGCTTGATTTTTAGTGAAATACCATAGTGTCACAACTAGTGCTGTCTCTGCCCCACGCCAAAAGGAAAAGTCAAGTGAAATAGGCTGGGTTGCCAGTCGGATAGTGTTCC,-1.04
2,GATGGACCCTATACGCGGCAACACAAACATCCAGTCCATCGCACTGTTCTTCAAACATGCCATGGTGCTCCCCACTCCTGGCCCTTGCACGTGCTCTTCCTTCCACTTAGGATGCCATCTCCGTGCTCCACCCACCTCCTGTGAGTCAGCCTAACACCCTGCTCCTTCAATGGCCAGCCTAAGTATCTCCACCTCTAGGATGCCTCCCTGTGCCAGTCGGATAGTGTTCC,-0.738
3,GATGGACCCTATACGCGGCTACTATATAGCTACTCCCCTCTAATATGCACTCTAAGCCCCACCCTTACTGCACTGCTCCACCCTGTGTCTCACCACCATGTGTTTGCTCATGCTGTTCTCTTGGCTTCTCCCCACATCTTGCACCCTTGCTATTAAACTCCTAATGTTTCTTCAAAGTACAGTTCAAAGATCACTTCCTCTTGGGCATATTGCCAGTCGGATAGTGTTCC,-0.684
4,GATGGACCCTATACGCGGCGCTGGTGTATGCTGGGAGCTATGCAGGCGTAGGGTGTGTCCTGGGCCAGAGGACACAGCACATGCTTAGGCTTGGGAGAAAGGACACTCGCCTGTGATGGGAGAGGCACTCATATTTGGGTCTGTGGTCTGGGCTGTGTGGGTGGGACACAGGGTGTGGACCTGGGTGGATCTTAAGGAGGGTGGATGGCATGCCAGTCGGATAGTGTTCC,-0.612

# Test system: SOX2 + histone octamer
# Assay: as above
# Conditions: 10 mM Tris-Cl pH 7.5, 50 mM NaCl, 1 mM DTT, 0.25 mg/ml BSA, 2 mM MgCl2, 0.025% Nonidet P-40, 5% glycerol; 28 nM nucleosome library; 10 min on ice then 30 min …; high values mean tight binding; double strand, one strand shown
row,Sequence,binding signal (log2 relative supershift)
1,GATGGACCCTATACGCGGCATTTCTGTAGGACCCACCCACCTTCCACCCACATCTCCTCTCTAACCCCCGCTCCCAGTGCCTCACCTCCTGGCCTAAGCCCCGCCCATGAGCCATCCGACCCTGCCTCCCTAGGGTAACAAGGGTGGCGTGAGCGTGCGCCTGGCGGCCTTCGGGCACATGCTCTGCTTCCTGAACTGCCACTTGCCTGCTGCCAGTCGGATAGTGTTCC,-0.726
2,GATGGACCCTATACGCGGCAGTAAGGTGGGCCCTTCACACCATGTGACTGGTATCCTTAAAAGAAGAAGAGACTCAGAGGGAAGACAGCCATGTGCAGCTGGAATGATGCATCTGAAGCCAAGGAATGCCACGCATTGCCAGCCACCACCCAAAACTGGAAAAAGTCAGGAAGGATTCTTCCCTAGAACCTTCAAAGGCAGCACAGCCCTTGCCAGTCGGATAGTGTTCC,-0.175
3,GATGGACCCTATACGCGGCGGGAGCTCCACTGAGGAGGGTGTGAGACATCACCAGCTGTGCCTGCATCCCCATCACAATCTCATAGAGAGCGGGAACAGCTTCCCAGGGAACAGCTCCGCACCCTGGGCATGAACACGAGTGCGTGTGTGTGACTATGAGAGTGTGTGAGGGTGTATTTGGGCATGAGTGTGCTGTGTGCATGTGTATATTGCCAGTCGGATAGTGTTCC,-0.0672
4,GATGGACCCTATACGCGGCTGCCACCCTTGGCTGTACCAAGCTCTGGGAAGGAAGGAGGGGACGTGTCCCAGGTACCCCCTCCACCCACATTGGTGAGGCTGACTCAGGCCCCAGCCACGTGTCCCAACCTGCCCTGCGCGTCCCAGAGGGGAAGGAAGATATTCCAATGCTCCCAGGAGGCTGAGGTTGGGCAGGGAGCAGGAGAGAGGTGCCAGTCGGATAGTGTTCC,-0.133
5,GATGGACCCTATACGCGGCTACTGTAGTGCAGCAAATATCTGTAGTGGCTAAAACTACATTTATTACTCCTTGTAAGTCTGTGTGTTTGCGGGGTAGATTAACTGATACAGGCTGGGCTTGACCAATCTCAATCTCAATGAGCTTGTTCATGTCCTGTGGTCAGTGGGGGATTGGCTAGTCTAGGATGGTCATGGCTGGGAGATATCATCTGCCAGTCGGATAGTGTTCC,-0.471
6,GATGGACCCTATACGCGGCAGCTGGGAGAGGCTAGTAGGGTGTGTGGGCAGGGAGGGGTGGAGGAGTCCTGGGAGGAGAGGAAGGGAGGCACAGGGTAGGAGTGTGCAGAGCGGGGAGTGGATGGCAAACACACAATCCACCCAACCACATGTGCTCTTTACCCCCCAGCTGATCCAGAAGTACAAGGTGGTCCTGGCCCCGGAGACGGGTGCCAGTCGGATAGTGTTCC,-0.851
7,GATGGACCCTATACGCGGCATAGCACAGTAGCTGTGAGGAAGTGACCGCTCAGGTGTTGGGTGATGTGTCTAGGGTCACATTGCCTAGAAGAGTGGCAGGGCTGCGCTTGCTGCAGGCTTGCTTGATCCTGAAGCCCTGGTTCCTCTCACCATGCCCTGGGCTGCAGAACTCACTTCTGGGCCTTGTAAGGCCGCTGGTGGGTAATGGTGTGCCAGTCGGATAGTGTTCC,-0.201
8,GATGGACCCTATACGCGGCCCGCCCCAGCAGGCCCATTGCATCAGCTGCAGGCCGGGGGTTGGGGGGTGTCCCAGCCCTCAGCTTGCCCACTCCCTCCTGCCCAGCCCTGCCCTGGCTTTCCTGCTCTGCTCCCACCCACAGCTCCCTGACATTGTCACCTACCTCCTGAGCTGTCACCACAGGGCGCACGGGACTCCGCTGCCCCAGGTTGCCAGTCGGATAGTGTTCC,-1.78
9,GATGGACCCTATACGCGGCCCTTCCTGCAGACCTGGCTGGGCCTGGGCTTCCACAGTGTGAAGACACTGTGCAGGCCCAGGCAGGCCCAGCCTCTGCCCCACCCATCAGTGGAGTCCAGATGGCAGGCTACAGTTGGGAAGTCTCAGCCTGGGCCCCTCAGCCACCCTTGGTCTCATGCCCCGCCATGGTCACCCTCAGGAACCCACCCTTGCCAGTCGGATAGTGTTCC,-0.744
10,GATGGACCCTATACGCGGCATTGGGAATCTGGGAGCACTCTTCTTGGTGCCTTTGGCTCAGGATCACTCACAAGGCTGCAGTCAAGGTATCCCCTGGGGCAGCCATCGTCTCAAGCCTCCGCTGGAAGAGGGTGCATGTCCAAGCTTGCCCATGTGGCTGTGGGCAGGCCTCAAGTCTTCACTGGCTGTTGGCTGAAGGCATCAATTTCTTGCCAGTCGGATAGTGTTCC,-0.722
11,GATGGACCCTATACGCGGCAGCATGATTCTCGCGATCCATTACTTCTGAAACAGATGACTCCCAGCAGCTGCTGCCTGTGGCCCACAGGGCTTCCTGCCCTGCATGACAGCTGCACATCACATCCTGTGGTCATACTACTTCAGCCGCTTCTACGGCCAGATACAAAAGTGGGTGGGGAACATAGGCAAGGGATCCAGCGACTTTACCGGTGCCAGTCGGATAGTGTTCC,-0.05
12,GATGGACCCTATACGCGGCTGGTTTTCTTGCCTATATACACCACATACACCATATACCTATATACCTATACACATGTGGTGTATATAGAAGGGAAGTGTATGTGCTGTGTGTGCTGTGCATACTGTGGGTGGTGTAGTGATATATGCATATGTGGTGTGTGTGGAGTATATTGGGTGTGTGATGTGTATGGTATATATTGGGTGTGTGTGTGCCAGTCGGATAGTGTTCC,-0.123
13,GATGGACCCTATACGCGGCATTGCCGTGGGAGTGCCAACTACTGTGGAATAACAGGCCCAGCCCTGCAGGCTCGGGCACGCTGTGCTGTAGGCCACAGCAACCACAGGCTCTGAGGCCTCTGGCCGCTCCAGGAGGGAGGGGTGCCGGGACAGAGACGCCCTCAGGCCTGGGAAGGCAAACTTGGAGGTGGGGTGGAGGGGACTTGAGGATGCCAGTCGGATAGTGTTCC,-1.65
14,GATGGACCCTATACGCGGCCCCACGGACACACATACATCAACACCCCCAAAACACACCCACATGTCACCAACTCTCAGGACACACGTAGATCAGGCACACACAGACACATGCCATCAGACCTCAACACACCACCAGACACCAACCCACCCTCCTCACGCAACCCTCAAACATCATCACCAACTGTCAGCAACACACACACACACACACCCTGCCAGTCGGATAGTGTTCC,-0.265
15,GATGGACCCTATACGCGGCAGCCCCTGCCTCCCTCCCTGCAGCTCCCAGACAGGCTGGGCCCCAGCAGCAGGCCGGGCTGTCTGGCTGCTGTTCAACAGGGAGTCCAGCTGCCTGGGGTCCTACAGAACGGGGCTGGGCAGGCATTCTTCTCTGTCCAGGCTCTGGCTTCAGGGCCAGGAAGGCAGGAGTTGTTGAGGTGCCTTAGTTTTTGCCAGTCGGATAGTGTTCC,-0.52
16,GATGGACCCTATACGCGGCATGAGCACTCCAGAGGTGGCAGCAAAAGCCACAGCCTGGGTCTATAGCACAAACATCTGGTCAGCACACAGTCACTGCCTTGCCCCACCCATCCCTTTGGCCTCCTCAGGCCTCCAACTGGTGGAGCCTTAGTCCCGCATCCACATGGCCACACCAGAGAAGAGAGCTAGGTGGAGGATGGGTCCCTCCCTTGCCAGTCGGATAGTGTTCC,-0.581
17,GATGGACCCTATACGCGGCCTAAGTGCGGTCTCCAAATCACGATGATCAGCATCACTTGTTGGAACTTGTTGGGAATGCAAATTATCAAGCCCCACCCCAGACCTTTGTGATCTAAAAGCCCTCCAGGTGATTCTGATCCACACTGAAGCACGAGAACCACTGACCTTAGGAACTGTTACCTGTTCCTTTGCTTCCGTAGAGTGAAGTAATGCCAGTCGGATAGTGTTCC,-0.192
18,GATGGACCCTATACGCGGCATGCTGTCTCTCTCACACATACACACATGGGCACATTCACAGGGATGCATACACGCCCCCACACCACATGCTTCCATACACATATGCATACATGAGGGCACATACACACGCCCATGCCACATGCTCACACACATACATGGGCACATACACAGGGGTGCATACACACCCATACCACCTCCTCTCACACACACTGCCAGTCGGATAGTGTTCC,-0.434
19,GATGGACCCTATACGCGGCTGGGGTCTGGATGCCTGGTGTGGCCTCATGCAGACTCTCTGGGCAGGTACCACAGTATGACGCGACAGCTGCTCCGCAAGGCTGACGGGGTGGTGCTCATGTACGACATCACCTCCCAGGAGAGCTTTGCCCACGTGCGCTACTGGCTAGACTGTCTCCAGGTGAGCAGATGGCTGCTGGGGTTGGCCCCATGCCAGTCGGATAGTGTTCC,-0.434
20,GATGGACCCTATACGCGGCGTAGGCAAAGAGGAAGCCCAAGATAGGGGAAGGCCAGGGTGTTGGTTCCTCAGTTTGTTGAAATCAGAGTCATGAAGCAAGACAAGCCAGGGCTTGCTCAGCATTTCTCCTTCCTGGCATGGGTTCACCTCAGCCCCAATTCAGTGGCAGCTCTGTTGGTTCAGAGGGGTGAGGTATCCAAGAGGAGGAAGTGCCAGTCGGATAGTGTTCC,-0.0783

# Two entries picked at random from those above, as already listed:
row,Sequence,binding signal (log2 relative supershift)
9,GATGGACCCTATACGCGGCCCTTCCTGCAGACCTGGCTGGGCCTGGGCTTCCACAGTGTGAAGACACTGTGCAGGCCCAGGCAGGCCCAGCCTCTGCCCCACCCATCAGTGGAGTCCAGATGGCAGGCTACAGTTGGGAAGTCTCAGCCTGGGCCCCTCAGCCACCCTTGGTCTCATGCCCCGCCATGGTCACCCTCAGGAACCCACCCTTGCCAGTCGGATAGTGTTCC,-0.744
1,GATGGACCCTATACGCGGCATTTCTGTAGGACCCACCCACCTTCCACCCACATCTCCTCTCTAACCCCCGCTCCCAGTGCCTCACCTCCTGGCCTAAGCCCCGCCCATGAGCCATCCGACCCTGCCTCCCTAGGGTAACAAGGGTGGCGTGAGCGTGCGCCTGGCGGCCTTCGGGCACATGCTCTGCTTCCTGAACTGCCACTTGCCTGCTGCCAGTCGGATAGTGTTCC,-0.726
